Measured data: PubChem BioAssay AID686937 (Drosophila RNAi Screening Center, 2013)
Screen: 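Genes whose loss weakens secretory pathway function in fly cells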 (primary screen). Cell system: Drosophila S2 cells expressing secreted horseradish peroxidase. Reagent: long dsRNA against Drosophila genes. Duration: about 5.5 days (5 days dsRNA, then 12 h reporter induction). Treatment: reporter expression induced after 5 days of dsRNA, read 12 h later; inducer not stated. Read-out: 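Chemiluminescent measurement of peroxidase in the medium 12 h after reporter induction, following 5 days of dsRNA, given as a z-score per plate; higher means more secretion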. Scale: z-score: higher = more reporter secreted into medium.
The deposit covers about 23,000 reagents; below is a random part of those that have a named target and a result. 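Reduced-secretion tags in replicate 1 do not always agree with the z-scores; no criterion for assigning the tags was given.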 Names joined by + are all predicted targets of the reagent. Not given: the amount of reagent.

no.	gene	PubChem SID	z-score, replicate 1	z-score, replicate 2	phenotype, replicate 1
1	CG7903	SID104196130	0.08	0	
2	CG7016	SID104195966	0.41	0.49	
3	Secp43	SID104180246	-0.03	0.18	
4	MtnA	SID104201295	-0.05	0.15	
5	CG13445	SID104189784	-0.21	-0.38	
6	CG17612	SID104180297	0.18	0.34	
7	CG34444	SID104186227	0.24	0.4	
8	CG13551	SID104201493	0.33	0.34	
9	scny	SID104190301	0.22	0.6	
10	scny	SID104190302	-0.01	0.13	
11	Arglu1	SID104182701	0.54	0.4	
12	Gr8a	SID104197835	0.1	-0.11	
13	gkt + CR31953	SID104180501	0.35	0.41	
14	P58IPK	SID104196196	-0.56	-0.24	
15	CG5196	SID104195527	0.38	0.62	
16	CG33155 + mRpL53	SID104185253	-0.73	-0.13	
17	obst-E	SID104181920	0.13	0.24	
18	mRpL47	SID104196619	0.13	0.25	
19	CG11997	SID104194256	0.25	0.78	
20	Jhbp5	SID104194032	0.42	0.28	
21	CG30265	SID104201299	0.24	-0.32	
22	Cyp4ac3	SID104183096	0.12	0.28	
23	CG8860	SID104187083	-3.29	-3.97	reduced secretion
24	CG15822	SID104188274	-0.1	0.01	
25	CG15822	SID104188275	0.22	0.22	
26	bin	SID104190124	0.23	0.26	
27	RhoGAP93B	SID104195280	0.47	0.54	
28	CG43163	SID104190540	0.25	0.32	
29	Slbp	SID104196655	-0.12	0.05	
30	CG7632	SID104191634	0.55	0.3	
31	CG14074	SID104189871	0.08	-0.18	
32	puf	SID104195667	-0.07	0.26	
33	insb	SID104186787	0.38	0.41	

Laid out differently: results already given.
| gene | PubChem SID | z-score, replicate 1 | z-score, replicate 2 | phenotype, replicate 1 |
| --- | --- | --- | --- | --- |
| mRpL47 | SID104196619 | 0.13 | 0.25 | – |
| CG11997 | SID104194256 | 0.25 | 0.78 | – |
| Jhbp5 | SID104194032 | 0.42 | 0.28 | – |
